Laboratory results as given in PubChem BioAssay AID256 (DTP/NCI, 2004).
The list shows only some results of the screen, not a fair sample: it gathers tests that were run many times, whatever their T/C, doses with no T/C, and many T/C values between a quarter and a half above the control. Further doses and runs are listed elsewhere. T/C is the treated group as % of the vehicle group. Some doses have a count of surviving animals in place of a T/C: the source files T/C as zero there, which appears to mark a toxic dose or a test without result, not a measured value. Some doses without a T/C left all or most animals alive at the check, yet need not have been tolerated: the source hardly ever lists a survival T/C far under the control, and the zero likely stands for such cases as well. Survivors were counted at the toxicity check, usually on the fifth day, unless a day is given; later deaths do not show. Schedules are NCI's codes, taken here to give the interval after Q, in days (D) or hours (H), and the number of doses after X. Some entries hold several experiments; their values stand side by side, smallest first. For survival time, the PubChem record calls one and a half times the control and up active, and a quarter to a half above the control has no call in these data; cut-offs in other NCI protocols can differ. Some schedules carry Z or #; the key to these is not given. Some T/C values carry the count of animals alive at the toxicity check (mostly the fifth day); without a count, all were alive then.

System: CD2F1 mice, L1210 leukemia ip, survival T/C
Experiment: NCI In Vivo Anticancer Drug Screen. Data for tumor model L1210 Leukemia (intraperitoneal) in CD2F1 (CDF1) mice
Details: higher T/C = longer survival
In short: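 Implant tumor; dose compound or vehicle; measure endpoint in both groups; report treated divided by control.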

[1] = T/C endpoint: mean survival time, dose: 400.0 mg/kg/injection, schedule: Q04DX003 (ip), vehicle: saline with Tween-80
[2] = T/C endpoint: mean survival time, dose: 100.0 mg/kg/injection, schedule: Q04DX002 (ip), vehicle: saline with Tween-80
[3] = T/C endpoint: mean survival time, dose: 150.0 mg/kg/injection, schedule: Q01DX001 (ip), vehicle: saline
[4] = T/C endpoint: mean survival time, dose: 300.0 mg/kg/injection, schedule: Q01DX001 (ip), vehicle: saline
[5] = T/C endpoint: mean survival time, dose: 50.0 mg/kg/injection, schedule: Q04DX003 (ip), vehicle: saline with Tween-80
[6] = T/C endpoint: mean survival time, dose: 100.0 mg/kg/injection, schedule: Q04DX003 (ip), vehicle: saline with Tween-80
[7] = T/C endpoint: mean survival time, dose: 200.0 mg/kg/injection, schedule: Q04DX003 (ip), vehicle: saline with Tween-80
[8] = T/C endpoint: mean survival time, dose: 400.0 mg/kg/injection, schedule: Q01DX009 (ip), vehicle: saline with Tween-80

Q: How did the survivor count (T/C endpoint: mean survival time, dose: 100.0 mg/kg/injection, schedule: Q04DX003 (ip), vehicle: saline) turn out when `Cc1cc2nc3ccc(=[N+](C)C)cc-3sc2cc1N` was run?
A: 1 of 6

Q: `O=C(NC(CSCc1ccccc1)C(=O)O)OCc1ccccc1` (centres undefined) was tested. Which survivor count [1] did it give?
A: 3 of 6

Q: How did the survivor count [2] turn out when `COC(=O)c1ccccc1NCCNc1ccccc1C(=O)OC` was run?
A: 3 of 3

Q: How did the survivor count (T/C endpoint: mean survival time, dose: 400.0 mg/kg/injection, schedule: Q01DX005 (ip), vehicle: distilled water + Tween-80) turn out when `Cc1cn(C2CC(O)C(COC(c3ccccc3)(c3ccccc3)c3ccc(OCC(=O)O)cc3)O2)c(=O)[nH]c1=O` (centres undefined) was run?
A: 0 of 6

Q: `CC(C)([NH-])C[NH-].O=C(O)CCO.[Pt+2]` was tested. Which T/C (T/C endpoint: median survival time, dose: 10.0 mg/kg/injection, schedule: Q04DX003 (ip), vehicle: saline) did it give?
A: 139 % of control

Q: What about the T/C (T/C endpoint: median survival time, dose: 10.0 mg/kg/injection, schedule: Q04DX003 (ip), vehicle: water) of the same molecule?
A: 132 % of control

Q: Which results are given for `O=c1[nH]c(=O)c2ncnnc2[nH]1`?
A: survivor count (T/C endpoint: mean survival time, dose: 100.0 mg/kg/injection, schedule: Q01DX001 (ip), vehicle: other): 2 of 6; survivor count (T/C endpoint: mean survival time, dose: 200.0 mg/kg/injection, schedule: Q01DX001 (ip), vehicle: other): 0 of 6; survivor count (T/C endpoint: mean survival time, dose: 400.0 mg/kg/injection, schedule: Q01DX001 (ip), vehicle: other): 0 of 6

Q: What does the source list for `CC1(C)C(=O)OCC2=C1CCCC2`?
A: survivor count (T/C endpoint: mean survival time, dose: 75.0 mg/kg/injection, schedule: Q01DX001 (ip), vehicle: saline): 0 of 6; survivor count [3]: 0 of 6; survivor count [4]: 0 of 6

Q: Which T/C (T/C endpoint: mean survival time, dose: 50.0 mg/kg/injection, schedule: Q01DX Z (ip), vehicle: saline) does the source give for `CC(C)n1cnc2c(=S)nc[nH]c21` here?
A: 127 % of control

Q: And the T/C (T/C endpoint: mean survival time, dose: 140.0 mg/kg/injection, schedule: Q01DX Z (ip), vehicle: saline)?
A: 141 % of control

Q: Which survivor count [5] does the source give for `c1ccc2c(NC3=NCCO3)c3ccccc3nc2c1` here?
A: 0 of 6

Q: What does the source list for `CCn1cnc2c(=S)nc[nH]c21`?
A: T/C (T/C endpoint: mean survival time, dose: 18.8 mg/kg/injection, schedule: Q03HX024 (ip), vehicle: saline): 126 % of control; T/C (T/C endpoint: mean survival time, dose: 30.0 mg/kg/injection, schedule: Q03HX008 (ip), vehicle: saline): 131 % of control; T/C (T/C endpoint: mean survival time, dose: 37.5 mg/kg/injection, schedule: Q03HX016 (ip), vehicle: saline): 135 % of control; T/C (T/C endpoint: mean survival time, dose: 60.0 mg/kg/injection, schedule: Q01DX009 (ip), vehicle: saline): 140 % of control; T/C (T/C endpoint: mean survival time, dose: 75.0 mg/kg/injection, schedule: Q01DX007 (ip), vehicle: saline): 141 % of control; T/C (T/C endpoint: mean survival time, dose: 75.0 mg/kg/injection, schedule: Q01DX009 (ip), vehicle: saline): 138 % of control; T/C (T/C endpoint: mean survival time, dose: 90.0 mg/kg/injection, schedule: Q03HX008 (ip), vehicle: saline): 148 % of control; T/C (T/C endpoint: mean survival time, dose: 150.0 mg/kg/injection, schedule: Q08DX002 (ip), vehicle: saline): 127 % of control; survivor count (T/C endpoint: mean survival time, dose: 240.0 mg/kg/injection, schedule: Q01DX009 (ip), vehicle: saline): 5 of 10; T/C [4]: 145 % of control; survivor count (T/C endpoint: mean survival time, dose: 300.0 mg/kg/injection, schedule: Q01DX007 (ip), vehicle: saline): 3 of 6; survivor count (T/C endpoint: mean survival time, dose: 300.0 mg/kg/injection, schedule: Q01DX009 (ip), vehicle: saline): 3 of 6; T/C (T/C endpoint: mean survival time, dose: 300.0 mg/kg/injection, schedule: Q03DX003 (ip), vehicle: saline): 126 % of control; T/C (T/C endpoint: mean survival time, dose: 300.0 mg/kg/injection, schedule: Q04DX003 (ip), vehicle: saline): 138 % of control; T/C (T/C endpoint: mean survival time, dose: 600.0 mg/kg/injection, schedule: Q01DX001 (ip), vehicle: saline): 145 % of control [7 of 10 alive]; T/C (T/C endpoint: median survival time, dose: 50.0 mg/kg/injection, schedule: Q01DX009 (ip), vehicle: saline with Tween-80): 149 % of control; T/C (T/C endpoint: median survival time, dose: 62.5 mg/kg/injection, schedule: Q01DX009 (ip), vehicle: saline): 137 % of control; survivor count (T/C endpoint: median survival time, dose: 125.0 mg/kg/injection, schedule: Q01DX009 (ip), vehicle: saline): 3 of 6; survivor count (T/C endpoint: median survival time, dose: 250.0 mg/kg/injection, schedule: Q01DX009 (ip), vehicle: saline): 4 of 6

Q: For `CC(C)N1C(=O)C2C3C=CC(C3)C2C1=O` (centres undefined), which survivor count [2] is on record?
A: 1 of 3

Q: What about the survivor count (T/C endpoint: mean survival time, dose: 200.0 mg/kg/injection, schedule: Q04DX002 (ip), vehicle: saline with Tween-80) of the same molecule?
A: 0 of 3

Q: What about the survivor count (T/C endpoint: mean survival time, dose: 400.0 mg/kg/injection, schedule: Q04DX002 (ip), vehicle: saline with Tween-80) of the same molecule?
A: 0 of 3

Q: Which results are given for `O=C(CCl)N1CCC2(CC1)SSC1(CCN(C(=O)CCl)CC1)S2`?
A: survivor count [6]: 5 of 6; survivor count [7]: 0 of 6; survivor count [1]: 0 of 6

Q: With `O=c1ccn(C2OC(CO)C3[O][Sn]([c]4ccccc4)([c]4ccccc4)[O]C32)c(=O)[nH]1` (centres undefined) as the molecule, how does the survivor count (T/C endpoint: mean survival time, dose: 25.0 mg/kg/injection, schedule: Q01DX005 (ip), vehicle: other) read?
A: 0 of 6 and 1 of 6

Q: And the survivor count (T/C endpoint: mean survival time, dose: 50.0 mg/kg/injection, schedule: Q01DX005 (ip), vehicle: other)?
A: 0 of 6

Q: What about the survivor count (T/C endpoint: mean survival time, dose: 100.0 mg/kg/injection, schedule: Q01DX005 (ip), vehicle: other) of the same molecule?
A: 0 of 6

Q: What about the survivor count (T/C endpoint: mean survival time, dose: 200.0 mg/kg/injection, schedule: Q01DX005 (ip), vehicle: other) of the same molecule?
A: 0 of 6

Q: How did the survivor count (T/C endpoint: mean survival time, dose: 100.0 mg/kg/injection, schedule: Q04DX002 (ip), vehicle: saline) turn out when `COCS(=O)[O-].[C-]#[O+].[C-]#[O+].[Fe+6].[c-]1[c-][c-][cH-][c-]1` was run?
A: 0 of 3

Q: And the survivor count (T/C endpoint: mean survival time, dose: 200.0 mg/kg/injection, schedule: Q04DX002 (ip), vehicle: saline)?
A: 0 of 3

Q: And the survivor count (T/C endpoint: mean survival time, dose: 400.0 mg/kg/injection, schedule: Q04DX002 (ip), vehicle: saline)?
A: 0 of 3

Q: What does the source list for `CCCCSC#N`?
A: survivor count (T/C endpoint: mean survival time, dose: 25.0 mg/kg/injection, schedule: Q01DX001 (ip), vehicle: saline): 0 of 3; survivor count (T/C endpoint: mean survival time, dose: 50.0 mg/kg/injection, schedule: Q01DX001 (ip), vehicle: saline): 0 of 3; survivor count (T/C endpoint: mean survival time, dose: 100.0 mg/kg/injection, schedule: Q01DX001 (ip), vehicle: saline): 0 of 3; survivor count (T/C endpoint: mean survival time, dose: 200.0 mg/kg/injection, schedule: Q01DX001 (ip), vehicle: saline): 0 of 3; survivor count (T/C endpoint: mean survival time, dose: 400.0 mg/kg/injection, schedule: Q01DX001 (ip), vehicle: saline): 0 of 3

Q: With `CCOC(=S)S` as the molecule, how does the survivor count (T/C endpoint: mean survival time, dose: 200.0 mg/kg/injection, schedule: Q04DX003 (ip), vehicle: saline) read?
A: 3 of 6

Q: What about the survivor count (T/C endpoint: mean survival time, dose: 400.0 mg/kg/injection, schedule: Q01DX009 (ip), vehicle: saline sonified) of the same molecule?
A: 2 of 6

Q: `Cc1c(N)nc(C(CC(N)=O)NCC(N)C(N)=O)nc1C(=O)NC(C(=O)NC(C)C(O)CC(=O)NC(C(=O)NC(OC1OC(C)C(N)C(O)C1O)C(O)c1nc(-c2nc(C(=O)NCCCC(N)CC(=O)NCCCNCCCCN)cs2)cs1)C(C)O)C(OC1OC(CO)C(O)C(O)C1OC1OC(CO)C(O)C(OC(N)=O)C1O)c1cnc[nH]1` (centres undefined) was tested. Which survivor count (T/C endpoint: mean survival time, dose: 32.0 mg/kg/injection, schedule: Q01DX009 (ip), vehicle: saline) did it give?
A: 6 of 6

Q: For `CN(C)CCNc1ccc(O)c2c1C(=O)c1ccccc1C2=O`, which T/C (T/C endpoint: mean survival time, dose: 160.0 mg/kg/injection, schedule: Q01DX009 (ip), vehicle: saline with Tween-80) is on record?
A: 139 % of control

Q: With `C[n+]1ccc2c(Br)cccc2c1` as the molecule, how does the survivor count [3] read?
A: 3 of 6

Q: What about the survivor count [4] of the same molecule?
A: 3 of 6

Q: Which survivor count (T/C endpoint: mean survival time, dose: 100.0 mg/kg/injection, schedule: Q01DX009 (ip), vehicle: saline with Tween-80) does the source give for `Cc1ccccc1NC(=O)CC#N` here?
A: 3 of 3

Q: And the survivor count (T/C endpoint: mean survival time, dose: 200.0 mg/kg/injection, schedule: Q01DX009 (ip), vehicle: saline with Tween-80)?
A: 3 of 3

Q: What about the survivor count [8] of the same molecule?
A: 2 of 3

Q: With `O=C1CCC(=O)O1` as the molecule, how does the survivor count [8] read?
A: 4 of 6

Q: `COc1ccc2c(c1)c(C#N)cc[n+]2C` was tested. Which survivor count (T/C endpoint: mean survival time, dose: 25.0 mg/kg/injection, schedule: Q01DX009 (ip), vehicle: saline with Tween-80) did it give?
A: 1 of 6

Q: And the survivor count [5]?
A: 4 of 6

Q: What about the survivor count [6] of the same molecule?
A: 0 of 6

Q: What about the survivor count [7] of the same molecule?
A: 0 of 6

Q: And the survivor count [1]?
A: 0 of 6

Q: What does the source list for `CCOC(=O)CCC(NC(=O)c1ccc(NCc2ccc3nc(N)nc(N)c3c2C)cc1)C(=O)OCC` (centres undefined)?
A: T/C (T/C endpoint: mean survival time, dose: 0.5 mg/kg/injection, schedule: Q01DX001 (ip), vehicle: saline + alcohol): 134 [5 of 6 alive] and 136 % of control [5 of 6 alive]; T/C (T/C endpoint: mean survival time, dose: 1.0 mg/kg/injection, schedule: Q01DX001 (ip), vehicle: saline + alcohol): 146 % of control [5 of 6 alive]
